From paper PMC10689503, “CaMKK2 and CHK1 phosphorylate human STN1 in response to replication stress to protect stalled forks from aberrant resection”
Substitutions are numbered along the chain they refer to. Numbers in names are those of the source. No constants are given. Whether binding was seen depends on the method and setting. For some of these results: Binding seen in cells or lysates may run through a third protein. Some binding calls cover weakened binding; strength is not graded here. Where a sequence is shown, tags or fusion partners need not be part of it. Blank lines part the entries; values can stand above or below the molecule they belong to.

The chains behind the UniProt entries cited, without tags or fusion partners.
UniProt Q06609: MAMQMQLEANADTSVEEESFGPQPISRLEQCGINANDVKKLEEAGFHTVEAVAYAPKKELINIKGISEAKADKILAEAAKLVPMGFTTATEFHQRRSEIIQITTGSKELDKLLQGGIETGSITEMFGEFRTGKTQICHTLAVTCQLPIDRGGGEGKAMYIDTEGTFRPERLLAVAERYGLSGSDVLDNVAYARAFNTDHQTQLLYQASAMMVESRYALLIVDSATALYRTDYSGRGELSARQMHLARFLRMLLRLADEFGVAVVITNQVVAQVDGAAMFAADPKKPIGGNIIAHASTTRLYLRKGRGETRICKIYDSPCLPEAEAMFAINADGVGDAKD

Columns and labels:
Myc-S96A-STN1 (human) = target: T1, Myc-S96A-STN1 (human) (UniProt Q9H668); assay: co-IP; HEK293T co-transfected with Flag-CTC1, HA-TEN1 and Myc-WT-STN1 or Myc-S96A, HU for 3 h (4 mM in the methods, 2 mM in the legend); anti-Myc antibody overnight at 4 °C, protein G agarose; lysis buffer 0.1% NP-40, 50 mM Tris-HCl pH 7.4, 50 mM NaCl, 2 mM DTT; western blot
T1 sequence: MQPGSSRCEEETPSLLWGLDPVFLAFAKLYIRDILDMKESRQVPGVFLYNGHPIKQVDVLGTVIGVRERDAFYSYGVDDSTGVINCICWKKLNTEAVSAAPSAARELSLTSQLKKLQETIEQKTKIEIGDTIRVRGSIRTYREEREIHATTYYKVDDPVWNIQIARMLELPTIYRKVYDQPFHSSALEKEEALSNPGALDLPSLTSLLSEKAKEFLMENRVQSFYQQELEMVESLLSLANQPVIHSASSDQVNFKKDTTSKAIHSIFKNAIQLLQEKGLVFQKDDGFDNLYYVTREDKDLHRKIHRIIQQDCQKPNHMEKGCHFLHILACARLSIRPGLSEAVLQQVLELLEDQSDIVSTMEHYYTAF

[1] = target: T2, Myc-tagged WT-STN1 (human) (UniProt Q9H668); assay: as above
T2 sequence: T1 sequence with A96S

[2] = target: T3, TEN1-His6 (co-expressed in Expi293F) (human) (UniProt Q86WV5); assay: co-purification (Ni-NTA, anti-Flag M2 affinity, size-exclusion chromatography); Flag-CTC1 and STN1-TEN1-His6 plasmids co-transfected into Expi293F; extract through Ni2+ NTA-agarose, anti-Flag M2 and Superdex 200 increase 10/300 GL; SDS-PAGE, Coomassie blue
T3 sequence: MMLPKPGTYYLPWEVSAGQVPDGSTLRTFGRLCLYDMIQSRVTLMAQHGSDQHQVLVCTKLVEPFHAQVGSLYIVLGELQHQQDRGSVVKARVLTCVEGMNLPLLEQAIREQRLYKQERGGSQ

[3] = target: T4, Flag-CTC1 (co-expressed in Expi293F) (human) (UniProt Q2NKJ3); assay: as above
T4 sequence: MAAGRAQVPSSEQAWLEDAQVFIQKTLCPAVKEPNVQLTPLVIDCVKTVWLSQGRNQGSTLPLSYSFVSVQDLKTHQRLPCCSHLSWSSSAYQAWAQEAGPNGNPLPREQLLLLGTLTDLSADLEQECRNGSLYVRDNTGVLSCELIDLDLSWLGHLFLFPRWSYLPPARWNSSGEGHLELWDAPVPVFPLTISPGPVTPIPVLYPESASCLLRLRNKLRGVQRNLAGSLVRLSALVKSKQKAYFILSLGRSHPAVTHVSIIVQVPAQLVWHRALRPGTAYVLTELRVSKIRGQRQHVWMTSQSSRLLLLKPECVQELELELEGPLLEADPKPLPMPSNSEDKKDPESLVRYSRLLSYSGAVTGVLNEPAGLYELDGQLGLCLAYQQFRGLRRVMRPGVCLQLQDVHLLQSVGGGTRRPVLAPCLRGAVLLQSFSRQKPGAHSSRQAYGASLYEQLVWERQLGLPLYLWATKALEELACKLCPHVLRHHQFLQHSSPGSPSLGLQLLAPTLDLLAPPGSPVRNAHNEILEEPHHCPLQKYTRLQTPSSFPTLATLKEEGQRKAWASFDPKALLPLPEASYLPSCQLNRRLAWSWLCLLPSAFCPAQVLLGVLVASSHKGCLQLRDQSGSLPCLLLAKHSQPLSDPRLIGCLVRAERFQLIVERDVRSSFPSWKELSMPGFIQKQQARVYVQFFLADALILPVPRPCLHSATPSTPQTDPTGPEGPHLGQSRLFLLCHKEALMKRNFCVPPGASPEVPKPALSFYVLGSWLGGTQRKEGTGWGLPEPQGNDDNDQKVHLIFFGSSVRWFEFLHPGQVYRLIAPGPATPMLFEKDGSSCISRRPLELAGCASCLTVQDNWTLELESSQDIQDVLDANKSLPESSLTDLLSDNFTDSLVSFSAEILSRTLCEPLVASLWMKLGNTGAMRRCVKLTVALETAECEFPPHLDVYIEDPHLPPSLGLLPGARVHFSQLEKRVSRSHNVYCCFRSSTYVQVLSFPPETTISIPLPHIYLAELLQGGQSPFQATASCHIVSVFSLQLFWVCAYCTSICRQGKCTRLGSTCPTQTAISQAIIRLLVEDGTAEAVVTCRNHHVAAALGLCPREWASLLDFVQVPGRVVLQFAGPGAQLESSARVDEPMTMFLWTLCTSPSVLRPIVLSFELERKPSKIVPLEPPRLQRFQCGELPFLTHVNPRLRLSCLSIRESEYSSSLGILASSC

Molecule: RAD51 (in HEK293T lysate) (from UniProt Q06609 1-339)
binding (Myc-S96A-STN1 (human)): binds
binding [1]: binds

B4: Flag-CTC1 (co-expressed in Expi293F) (protein, UniProt Q2NKJ3 1-1217)
chain: T4 sequence
binding [2]: binds

B5: Flag-CTC1 (protein, UniProt Q2NKJ3 1-1217)
chain: T4 sequence
binding (Myc-S96A-STN1 (human)): binds
binding [1]: binds

B6: HA-TEN1 (protein, UniProt Q86WV5 1-123)
chain: T3 sequence
binding (Myc-S96A-STN1 (human)): binds
binding [1]: binds

Further lines, results first:

binding [2]: binds
binding [3]: binds
B1: STN1 S96A (co-expressed in Expi293F) (protein, UniProt Q9H668 1-368)
chain: T1 sequence

binding [2]: binds
binding [3]: binds
B2: STN1 S96D (co-expressed in Expi293F) (protein, UniProt Q9H668 1-368)
chain: T1 sequence with A96D

binding [2]: binds
binding [3]: binds
B3: STN1 wild type (co-expressed in Expi293F) (protein, UniProt Q9H668 1-368)
chain: T1 sequence with A96S
